Data source: PubChem BioAssay AID504764 (Drosophila RNAi Screening Center, 2011)

Assay: 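Genome-wide screen for regulators of Notch-driven gene expression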 (primary screen)
System: Drosophila Kc167 cells
Reagents: long dsRNA against Drosophila genes
Timing: about 5 days (4 days dsRNA, then 24 h after transfection)
Challenge: transfection of constitutively active membrane-tethered Notch lacking the extracellular domain, read 24 h later
Detection: 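Firefly luciferase from an E(spl)m3 reporter with active Notch, plus control-promoter and uninduced reporter wells for normalisation; unnormalised counts, duplicate wells a and b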
Scale: induced reporter light, run 1, well a and induced reporter light, run 1, well b: higher = more light from the Notch target reporter with active Notch; control promoter light, run 1, well a and control promoter light, run 1, well b: higher = more light from the viral control promoter (cell number, transfection, viability); uninduced reporter light, run 1, well a: higher = more light from the Notch target reporter without active Notch
Rule for the call: 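Wells with low control signal or poorly matching duplicates excluded; duplicates averaged; per source plate, z beyond ±2 for induced/control log2 ratio or beyond ±1.8 for induced/uninduced marks a hit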
Calls: active = modifier hit (raised or lowered Notch signal); inactive = not a hit
In all, the deposit lists about 22,000 reagents; shown is a random part of those with a known target gene and a result. Of all reagents, 403 (1.9%) were called active. 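Unnormalised raw counts per well; ratio z-scores behind the hit calls and whether each hit raises or lowers signal are not deposited.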 No sequences are given here. The record does not give: the amount of reagent.

| Gene | dsRNA | induced reporter light, run 1, well a | induced reporter light, run 1, well b | control promoter light, run 1, well a | control promoter light, run 1, well b | uninduced reporter light, run 1, well a | activity call |
| --- | --- | --- | --- | --- | --- | --- | --- |
| Rab26 | DRSC11837 | 20295 | 17730 | 7178 | 7475 | 5342 | inactive |
| Rab26 | DRSC11838 | 1.48e5 | 1.10e5 | 1.15e5 | 78770 | 6455 | inactive |
| Rab26 | DRSC11839 | 1.01e5 | 96770 | 83975 | 79305 | 5692 | inactive |
| CG10467 | DRSC09728 | 1.58e5 | 1.26e5 | 1.10e5 | 85600 | 7100 | active |
| ND-42 (NADH dehydrogenase (ubiquinone) 42 kDa subunit) | DRSC16754 | 1.05e5 | 84710 | 1.38e5 | 1.33e5 | 8432 | inactive |
| Dera (Deoxyribose-phosphate aldolase) | DRSC07207 | 1.37e5 | 1.58e5 | 1.54e5 | 1.59e5 | 12075 | inactive |
| Dera (Deoxyribose-phosphate aldolase) | DRSC21336 | – | – | – | – | – | inactive |
| Sos (Son of sevenless) | DRSC03439 | 1.06e5 | 1.25e5 | 71625 | 69935 | 8815 | active |
| CG1233 | DRSC08269 | 89060 | 1.01e5 | 1.82e5 | 1.54e5 | 7440 | inactive |
| Vm26Ac (Vitelline membrane 26Aac) | DRSC02329 | 87775 | 50045 | 54345 | 58755 | 4692 | inactive |
| Or47b (Odorant receptor 47b) | DRSC07492 | 94090 | 1.06e5 | 1.12e5 | 1.20e5 | 9460 | inactive |
| CG8060 | DRSC07064 | 1.02e5 | 1.16e5 | 2.03e5 | 2.09e5 | 9905 | inactive |
| Cpr30B (Cuticular protein 30B) | DRSC02728 | 1.37e5 | 1.61e5 | 95140 | 1.08e5 | 22565 | inactive |
| p (pink) | DRSC16560 | 77080 | 88475 | 75870 | 52255 | 7910 | inactive |
| CG13065 | DRSC09948 | 1.73e5 | 1.79e5 | 2.02e5 | 2.38e5 | 9175 | inactive |
| larp (La related protein) | DRSC14728 | 1.29e5 | 1.56e5 | 1.73e5 | 1.72e5 | 9525 | inactive |
| larp (La related protein) | DRSC16984 | 97245 | 96375 | 1.29e5 | 1.15e5 | 11965 | inactive |
| CG8072 | DRSC10960 | 2.17e5 | 1.71e5 | 3.26e5 | 2.78e5 | 11265 | inactive |
| IKKepsilon (I-kappaB kinase epsilon) | DRSC03550 | 85005 | 62485 | 63875 | 54870 | 4185 | inactive |
| eya (eyes absent) | DRSC03510 | 2.34e5 | 2.06e5 | 1.65e5 | 1.81e5 | 17660 | inactive |
| CG8861 | DRSC12731 | 2.25e5 | 1.75e5 | 1.62e5 | 1.81e5 | 17135 | inactive |
| CG8861 | DRSC16449 | 83205 | 72000 | 73605 | 52195 | 4820 | inactive |
| U2af38 (U2 small nuclear riboprotein auxiliary factor 38) | DRSC00796 | 65990 | 64435 | 67595 | 58290 | 5300 | inactive |
| CG13693 | DRSC00362 | 2.32e5 | 1.36e5 | 1.37e5 | 1.09e5 | 12045 | inactive |
| Thor | DRSC00770 | 1.72e5 | 1.85e5 | 1.72e5 | 1.64e5 | 13770 | inactive |
| CG34039 | DRSC09318 | 1.75e5 | 1.74e5 | 1.94e5 | 2.18e5 | 19725 | inactive |
| CDK2AP1 (CDK2-associated protein 1) | DRSC19800 | 1.95e5 | 1.60e5 | 1.99e5 | 1.43e5 | 12225 | inactive |
| Top1 (Topoisomerase 1) | DRSC20295 | 70590 | 71885 | 92680 | 1.04e5 | 11015 | inactive |
| CG15425 | DRSC00440 | 1.92e5 | 1.29e5 | 2.19e5 | 2.12e5 | 10238 | inactive |
| hui (hase und igel) | DRSC05977 | 1.12e5 | 88260 | 60930 | 62530 | 8155 | active |
| Polr2E (RNA polymerase II, I and III subunit E) | DRSC06100 | 28775 | 21335 | 26570 | 25905 | 2860 | inactive |
| CG32718 | DRSC17538 | 96120 | 91100 | 92205 | 77905 | 5735 | inactive |
| GstD8 (Glutathione S transferase D8) | DRSC16689 | 53215 | 55025 | 56855 | 48545 | 4265 | inactive |
| CG10802 | DRSC17762 | 1.67e5 | 2.39e5 | 2.48e5 | 2.18e5 | 14035 | inactive |

Part of the list above, reformatted:
larp (La related protein) [DRSC16984] → induced reporter light, run 1, well a = 97245; induced reporter light, run 1, well b = 96375; control promoter light, run 1, well a = 1.29e5; control promoter light, run 1, well b = 1.15e5; uninduced reporter light, run 1, well a = 11965; activity call = inactive
CG8072 [DRSC10960] → induced reporter light, run 1, well a = 2.17e5; induced reporter light, run 1, well b = 1.71e5; control promoter light, run 1, well a = 3.26e5; control promoter light, run 1, well b = 2.78e5; uninduced reporter light, run 1, well a = 11265; activity call = inactive
IKKepsilon (I-kappaB kinase epsilon) [DRSC03550] → induced reporter light, run 1, well a = 85005; induced reporter light, run 1, well b = 62485; control promoter light, run 1, well a = 63875; control promoter light, run 1, well b = 54870; uninduced reporter light, run 1, well a = 4185; activity call = inactive
eya (eyes absent) [DRSC03510] → induced reporter light, run 1, well a = 2.34e5; induced reporter light, run 1, well b = 2.06e5; control promoter light, run 1, well a = 1.65e5; control promoter light, run 1, well b = 1.81e5; uninduced reporter light, run 1, well a = 17660; activity call = inactive
CG8861 [DRSC12731] → induced reporter light, run 1, well a = 2.25e5; induced reporter light, run 1, well b = 1.75e5; control promoter light, run 1, well a = 1.62e5; control promoter light, run 1, well b = 1.81e5; uninduced reporter light, run 1, well a = 17135; activity call = inactive
